Experimental data: PubChem BioAssay AID652243 (Drosophila RNAi Screening Center, 2013)
Purpose: 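Fly genes required for human androgen receptor driven transcription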 (primary screen). System: Drosophila S2R+ cells. Reagents: long dsRNA against Drosophila genes. Duration: 72 h (48 h, then 24 h hormone). Conditions: synthetic androgen R1881 at 10 nM for 24 h. Detection: 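Firefly light from an androgen-responsive reporter and Renilla control light per well, raw and unnormalised, for each of two replicates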. Direction: firefly reporter light: higher = more light from androgen-responsive reporter; Renilla control light: higher = more constitutive control signal (cell number, transfection). Rule for the call: 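Across duplicate plates, a knock-down whose log firefly/Renilla ratio shifted a set fold down or up from the GFP/LacZ control mean was a hit; the downward cut appears as both 1.5 and 3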. Calls: active = hit: reporter lowered or raised; inactive = no hit.
The deposit covers about 24,000 reagents; this is a random part of those that have a named target and a result. Of all reagents, 246 (1%) were called active. 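Plates not normalised; calls are printed but the firefly/Renilla ratio behind them is not deposited; fold cut for lowering reported inconsistently.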 Raw values are not corrected between plates. The numbers tell different reagents against one gene apart. Names joined by + are all predicted targets of the reagent. No sequences are given here. The record does not give: the amount of reagent.

gene knocked down | reagent no. | firefly reporter light, replicate 1 | firefly reporter light, replicate 2 | Renilla control light, replicate 1 | Renilla control light, replicate 2 | call
CG15754 | 1 | 3.38e5 | 5.07e5 | 1.98e6 | 2.99e6 | inactive
CG15754 | 2 | 7.32e5 | 7.06e5 | 7.19e5 | 6.01e5 | inactive
Art4 | 1 | 1.17e5 | 1.54e5 | 1.85e6 | 2.42e6 | inactive
Unr | 1 | 7.10e5 | 6.34e5 | 1.26e6 | 1.61e6 | inactive
Unr | 2 | 5.71e5 | 8.43e5 | 2.19e6 | 2.50e6 | inactive
Unr | 3 | 6.42e5 | 4.05e5 | 6.16e5 | 5.70e5 | inactive
Unr | 4 | 4.71e5 | 4.55e5 | 1.11e6 | 8.74e5 | inactive
side-II | 1 | 2.24e5 | 2.77e5 | 2.01e6 | 2.47e6 | inactive
side-II | 2 | 6.44e5 | 7.22e5 | 2.34e6 | 3.05e6 | inactive
side-II | 3 | 3.85e5 | 7.14e5 | 8.62e5 | 1.19e6 | inactive
side-II | 4 | 93501 | 1.67e5 | 3.05e5 | 6.16e5 | inactive
side-II | 5 | 5.83e5 | 6.42e5 | 5.50e5 | 6.45e5 | inactive
CG10694 | 1 | 1.71e5 | 1.78e5 | 2.33e6 | 2.11e6 | inactive
CG15705 | 1 | 91645 | 66162 | 1.51e6 | 1.51e6 | inactive
CG15705 | 2 | 3.26e5 | 4.71e5 | 1.58e6 | 1.58e6 | inactive
CG18661 | 1 | 1.10e5 | 1.52e5 | 1.16e6 | 9.37e5 | inactive
SpdS | 1 | 1.37e5 | 1.70e5 | 3.01e6 | 2.08e6 | inactive
CG5966 | 1 | 64733 | 1.14e5 | 7.01e5 | 5.99e5 | inactive
dgo | 1 | 1.11e6 | 1.29e6 | 1.23e6 | 1.25e6 | inactive
dgo | 2 | 2.57e5 | 1.84e5 | 6.94e5 | 4.30e5 | inactive
CG10616 | 1 | 1.14e6 | 5.85e5 | 1.66e6 | 1.11e6 | inactive
homer | 1 | 1.05e6 | 1.26e6 | 2.06e6 | 1.97e6 | inactive
homer | 2 | 1.08e6 | 8.27e5 | 1.23e6 | 1.42e6 | inactive
CG5290 | 1 | 81386 | 22359 | 4.93e5 | 2.79e5 | inactive
CG5290 | 2 | 4.18e5 | 4.18e5 | 1.12e6 | 1.19e6 | inactive
spidey | 1 | 5.05e5 | 3.81e5 | 2.86e6 | 2.33e6 | inactive
spidey | 2 | 8.43e5 | 7.55e5 | 1.17e6 | 1.12e6 | inactive
Syngr | 1 | 2.17e5 | 1.69e5 | 2.11e6 | 2.11e6 | inactive
CG13193 | 1 | 3.89e5 | 2.69e5 | 2.72e6 | 2.30e6 | inactive
stol | 1 | 1.04e5 | 1.11e5 | 1.55e6 | 1.77e6 | inactive
Drip | 1 | 3.09e5 | 2.48e5 | 1.98e6 | 1.93e6 | inactive
Acox57D-d | 1 | 7.26e5 | 5.46e5 | 2.26e6 | 1.90e6 | inactive
Acox57D-d | 2 | 8.62e5 | 7.28e5 | 1.17e6 | 1.13e6 | inactive
ndl | 1 | 1.34e5 | 1.38e5 | 2.02e6 | 2.06e6 | inactive
ndl | 2 | 3.62e5 | 2.68e5 | 6.93e5 | 5.71e5 | inactive
CG6000 | 1 | 1.36e5 | 1.93e5 | 2.05e6 | 2.62e6 | inactive
Acp76A | 1 | 3.61e5 | 2.19e5 | 2.44e6 | 2.13e6 | inactive
Acp76A | 2 | 1.79e6 | 1.18e6 | 1.43e6 | 1.43e6 | inactive
Acp76A | 3 | 9.87e5 | 8.61e5 | 2.16e6 | 1.87e6 | inactive
ovm + CG31975 | 1 | 8.91e5 | 1.15e6 | 1.77e6 | 1.59e6 | inactive
CG1504 | 1 | 2.75e5 | 1.40e5 | 9.16e5 | 4.75e5 | inactive
CG1504 | 2 | 2.37e5 | 3.29e5 | 5.75e5 | 7.03e5 | inactive
Pex11ab | 1 | 36713 | 74410 | 1.06e6 | 1.06e6 | inactive
Np | 1 | 3.61e5 | 2.02e5 | 1.75e6 | 1.27e6 | inactive
Np | 2 | 1.19e6 | 1.34e6 | 1.29e6 | 1.26e6 | inactive
CG16888 | 1 | 1.81e5 | 1.68e5 | 1.35e6 | 1.36e6 | inactive
Obp47b + CG7741 | 1 | 1.07e5 | 86746 | 4.98e5 | 8.14e5 | inactive
Obp47b + CG7741 | 2 | 3.47e5 | 3.42e5 | 7.97e5 | 8.37e5 | inactive
Rok | 1 | 1.16e5 | 1.30e5 | 7.57e5 | 8.35e5 | inactive
Rok | 2 | 4.29e5 | 4.59e5 | 8.46e5 | 7.46e5 | inactive
Rok | 3 | – | – | – | – | inactive
CG7483 | 1 | 68211 | 98979 | 1.67e6 | 1.25e6 | inactive
CG7483 | 2 | 2.52e5 | 6.34e5 | 2.36e5 | 4.33e5 | inactive
CG7483 | 3 | 2.83e5 | 2.64e5 | 5.00e5 | 5.03e5 | inactive
CG3124 | 1 | 6.77e5 | 8.42e5 | 8.21e5 | 1.02e6 | inactive
CG3124 | 2 | 3.81e5 | 2.75e5 | 6.30e5 | 6.82e5 | inactive
NC2beta | 1 | 1.12e6 | 6.60e5 | 1.75e6 | 1.72e6 | inactive
NC2beta | 2 | 4.38e5 | 5.80e5 | 2.47e5 | 2.42e5 | inactive

Targets listed so far whose gene name begins with S or s (10):
gene knocked down | reagent no. | firefly reporter light, replicate 1 | firefly reporter light, replicate 2 | Renilla control light, replicate 1 | Renilla control light, replicate 2 | call
side-II | 1 | 2.24e5 | 2.77e5 | 2.01e6 | 2.47e6 | inactive
side-II | 2 | 6.44e5 | 7.22e5 | 2.34e6 | 3.05e6 | inactive
side-II | 3 | 3.85e5 | 7.14e5 | 8.62e5 | 1.19e6 | inactive
side-II | 4 | 93501 | 1.67e5 | 3.05e5 | 6.16e5 | inactive
side-II | 5 | 5.83e5 | 6.42e5 | 5.50e5 | 6.45e5 | inactive
SpdS | 1 | 1.37e5 | 1.70e5 | 3.01e6 | 2.08e6 | inactive
spidey | 1 | 5.05e5 | 3.81e5 | 2.86e6 | 2.33e6 | inactive
spidey | 2 | 8.43e5 | 7.55e5 | 1.17e6 | 1.12e6 | inactive
Syngr | 1 | 2.17e5 | 1.69e5 | 2.11e6 | 2.11e6 | inactive
stol | 1 | 1.04e5 | 1.11e5 | 1.55e6 | 1.77e6 | inactive
